Results published in the supplement of paper PMC10849652.
This is one part of the list.

Sequences of proteins named here, by UniProt entry; tags and fusion partners are left off. A change or cut given only in a name is not applied to a line headed by its entry.
UniProt Q96EQ0: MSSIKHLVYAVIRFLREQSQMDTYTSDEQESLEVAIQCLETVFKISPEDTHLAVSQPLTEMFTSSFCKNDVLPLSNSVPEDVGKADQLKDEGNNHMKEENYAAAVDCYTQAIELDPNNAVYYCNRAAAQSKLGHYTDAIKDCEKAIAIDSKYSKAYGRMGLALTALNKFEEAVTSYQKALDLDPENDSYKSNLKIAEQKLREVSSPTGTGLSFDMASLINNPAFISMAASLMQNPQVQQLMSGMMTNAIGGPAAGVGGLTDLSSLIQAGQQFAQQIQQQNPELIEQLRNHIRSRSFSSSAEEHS
UniProt P63208, whole entry, looked up: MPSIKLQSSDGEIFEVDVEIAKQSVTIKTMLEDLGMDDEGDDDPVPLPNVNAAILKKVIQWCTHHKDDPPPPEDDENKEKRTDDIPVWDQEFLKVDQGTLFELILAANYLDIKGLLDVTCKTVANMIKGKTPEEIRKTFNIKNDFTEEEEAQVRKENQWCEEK
UniProt Q12874: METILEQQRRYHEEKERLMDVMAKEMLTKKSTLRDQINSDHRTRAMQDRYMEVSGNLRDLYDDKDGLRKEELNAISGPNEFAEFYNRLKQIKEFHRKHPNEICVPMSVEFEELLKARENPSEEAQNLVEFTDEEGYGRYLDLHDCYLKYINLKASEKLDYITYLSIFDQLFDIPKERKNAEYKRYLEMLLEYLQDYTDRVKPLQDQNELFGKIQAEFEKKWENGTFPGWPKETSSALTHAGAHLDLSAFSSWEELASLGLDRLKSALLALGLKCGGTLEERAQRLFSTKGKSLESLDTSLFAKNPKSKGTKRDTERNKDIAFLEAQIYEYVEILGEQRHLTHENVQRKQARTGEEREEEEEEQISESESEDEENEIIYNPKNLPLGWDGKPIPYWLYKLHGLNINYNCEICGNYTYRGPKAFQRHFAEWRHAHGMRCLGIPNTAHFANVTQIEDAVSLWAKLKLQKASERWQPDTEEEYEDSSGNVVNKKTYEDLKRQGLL
UniProt P49908, whole entry, looked up: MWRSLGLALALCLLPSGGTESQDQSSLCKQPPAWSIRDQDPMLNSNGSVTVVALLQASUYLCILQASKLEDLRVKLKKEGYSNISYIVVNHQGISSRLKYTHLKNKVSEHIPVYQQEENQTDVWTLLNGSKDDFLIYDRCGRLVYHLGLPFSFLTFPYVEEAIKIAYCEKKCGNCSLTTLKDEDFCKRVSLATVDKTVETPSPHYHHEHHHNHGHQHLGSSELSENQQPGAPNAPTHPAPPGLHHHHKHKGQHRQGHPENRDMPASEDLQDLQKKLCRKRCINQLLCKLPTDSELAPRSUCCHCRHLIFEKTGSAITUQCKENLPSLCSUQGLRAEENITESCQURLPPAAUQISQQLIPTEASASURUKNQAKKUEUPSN
UniProt Q99442: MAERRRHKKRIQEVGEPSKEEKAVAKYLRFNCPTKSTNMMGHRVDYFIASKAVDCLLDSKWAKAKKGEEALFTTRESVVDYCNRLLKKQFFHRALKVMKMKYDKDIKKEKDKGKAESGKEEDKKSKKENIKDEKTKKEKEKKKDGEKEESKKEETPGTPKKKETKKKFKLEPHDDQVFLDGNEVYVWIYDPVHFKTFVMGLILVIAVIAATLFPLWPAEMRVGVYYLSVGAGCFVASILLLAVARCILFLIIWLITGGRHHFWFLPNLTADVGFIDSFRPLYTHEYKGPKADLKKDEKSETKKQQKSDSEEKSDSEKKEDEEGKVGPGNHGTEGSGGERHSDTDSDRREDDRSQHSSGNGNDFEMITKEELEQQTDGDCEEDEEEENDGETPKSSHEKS
UniProt Q15393: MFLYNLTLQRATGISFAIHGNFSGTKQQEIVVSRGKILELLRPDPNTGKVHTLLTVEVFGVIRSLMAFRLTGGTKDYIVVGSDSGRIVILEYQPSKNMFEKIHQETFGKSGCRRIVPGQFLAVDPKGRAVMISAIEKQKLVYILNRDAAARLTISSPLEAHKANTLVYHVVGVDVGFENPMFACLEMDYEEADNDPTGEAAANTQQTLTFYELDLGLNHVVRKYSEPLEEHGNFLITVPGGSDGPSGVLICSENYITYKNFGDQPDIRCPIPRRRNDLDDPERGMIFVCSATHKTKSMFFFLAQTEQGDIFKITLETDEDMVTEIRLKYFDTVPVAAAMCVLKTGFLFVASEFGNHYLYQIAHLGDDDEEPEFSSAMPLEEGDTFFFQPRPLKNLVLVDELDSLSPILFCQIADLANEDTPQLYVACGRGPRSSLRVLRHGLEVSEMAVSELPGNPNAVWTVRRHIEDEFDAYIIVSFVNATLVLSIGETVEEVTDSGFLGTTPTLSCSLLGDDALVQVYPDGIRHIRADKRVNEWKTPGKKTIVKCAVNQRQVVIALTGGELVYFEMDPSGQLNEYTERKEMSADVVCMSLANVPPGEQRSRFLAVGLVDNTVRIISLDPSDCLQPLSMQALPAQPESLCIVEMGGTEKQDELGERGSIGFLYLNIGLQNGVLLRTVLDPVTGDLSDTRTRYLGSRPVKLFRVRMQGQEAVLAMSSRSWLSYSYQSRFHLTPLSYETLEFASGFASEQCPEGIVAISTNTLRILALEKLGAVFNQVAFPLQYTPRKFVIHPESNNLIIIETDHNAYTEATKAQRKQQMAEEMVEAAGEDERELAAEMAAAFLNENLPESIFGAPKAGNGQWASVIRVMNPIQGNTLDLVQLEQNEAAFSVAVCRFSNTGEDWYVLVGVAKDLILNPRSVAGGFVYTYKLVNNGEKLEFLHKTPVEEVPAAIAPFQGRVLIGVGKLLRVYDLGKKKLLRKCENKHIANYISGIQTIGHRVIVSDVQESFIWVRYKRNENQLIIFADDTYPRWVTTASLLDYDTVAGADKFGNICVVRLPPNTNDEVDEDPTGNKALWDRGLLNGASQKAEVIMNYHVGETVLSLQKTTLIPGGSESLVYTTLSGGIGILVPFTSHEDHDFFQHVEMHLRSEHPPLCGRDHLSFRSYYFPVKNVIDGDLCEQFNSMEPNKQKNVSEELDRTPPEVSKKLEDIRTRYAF
UniProt A0MZ66, whole entry, looked up: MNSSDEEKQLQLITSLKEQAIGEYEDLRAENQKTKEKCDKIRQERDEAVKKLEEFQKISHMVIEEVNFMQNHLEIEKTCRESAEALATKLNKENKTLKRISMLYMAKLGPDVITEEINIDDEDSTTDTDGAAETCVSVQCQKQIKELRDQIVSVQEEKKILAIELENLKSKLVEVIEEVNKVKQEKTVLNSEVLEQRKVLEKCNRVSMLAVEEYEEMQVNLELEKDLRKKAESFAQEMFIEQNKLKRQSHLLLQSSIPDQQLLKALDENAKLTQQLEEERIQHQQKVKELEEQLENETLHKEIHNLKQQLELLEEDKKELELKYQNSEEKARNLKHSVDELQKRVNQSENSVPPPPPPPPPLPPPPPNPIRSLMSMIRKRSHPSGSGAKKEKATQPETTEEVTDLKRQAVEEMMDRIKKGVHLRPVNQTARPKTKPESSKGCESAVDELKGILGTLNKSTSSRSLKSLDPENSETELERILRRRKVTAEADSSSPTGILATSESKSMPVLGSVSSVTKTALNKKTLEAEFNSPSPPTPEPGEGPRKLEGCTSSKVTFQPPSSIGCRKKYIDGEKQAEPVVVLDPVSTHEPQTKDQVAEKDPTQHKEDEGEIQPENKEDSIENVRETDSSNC
UniProt P61619, whole entry, looked up: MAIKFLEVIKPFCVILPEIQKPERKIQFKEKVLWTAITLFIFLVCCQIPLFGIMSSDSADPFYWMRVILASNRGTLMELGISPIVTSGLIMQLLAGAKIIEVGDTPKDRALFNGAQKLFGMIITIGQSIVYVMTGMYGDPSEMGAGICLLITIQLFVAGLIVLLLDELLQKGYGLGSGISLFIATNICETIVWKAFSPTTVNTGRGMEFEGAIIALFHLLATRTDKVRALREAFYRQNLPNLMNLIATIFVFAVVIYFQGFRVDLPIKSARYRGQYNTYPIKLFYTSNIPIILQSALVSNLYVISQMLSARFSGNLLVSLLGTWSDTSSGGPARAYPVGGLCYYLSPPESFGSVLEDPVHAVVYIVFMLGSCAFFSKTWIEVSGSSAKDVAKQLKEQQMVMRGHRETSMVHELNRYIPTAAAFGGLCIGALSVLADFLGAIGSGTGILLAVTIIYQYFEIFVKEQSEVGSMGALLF
UniProt P01008, whole entry, looked up: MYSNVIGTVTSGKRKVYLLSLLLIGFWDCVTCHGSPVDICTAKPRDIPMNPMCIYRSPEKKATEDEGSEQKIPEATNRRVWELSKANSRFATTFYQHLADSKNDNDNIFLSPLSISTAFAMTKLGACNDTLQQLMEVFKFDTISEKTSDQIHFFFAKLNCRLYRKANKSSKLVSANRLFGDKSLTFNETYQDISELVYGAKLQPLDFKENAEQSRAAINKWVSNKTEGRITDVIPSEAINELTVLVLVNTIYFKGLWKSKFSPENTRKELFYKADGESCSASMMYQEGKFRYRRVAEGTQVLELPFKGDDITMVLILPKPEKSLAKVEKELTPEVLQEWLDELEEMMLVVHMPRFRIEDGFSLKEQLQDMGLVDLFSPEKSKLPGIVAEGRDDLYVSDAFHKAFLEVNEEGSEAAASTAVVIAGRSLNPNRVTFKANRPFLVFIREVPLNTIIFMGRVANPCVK
UniProt O43765: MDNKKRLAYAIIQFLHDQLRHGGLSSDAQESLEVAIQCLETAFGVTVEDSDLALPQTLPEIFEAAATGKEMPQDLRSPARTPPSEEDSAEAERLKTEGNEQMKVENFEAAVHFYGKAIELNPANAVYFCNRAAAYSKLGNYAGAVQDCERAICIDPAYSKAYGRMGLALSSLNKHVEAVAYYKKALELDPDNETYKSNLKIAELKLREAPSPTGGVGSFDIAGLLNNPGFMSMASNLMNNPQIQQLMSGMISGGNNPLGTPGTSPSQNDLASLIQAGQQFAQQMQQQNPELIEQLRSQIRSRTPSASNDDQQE
UniProt P36955: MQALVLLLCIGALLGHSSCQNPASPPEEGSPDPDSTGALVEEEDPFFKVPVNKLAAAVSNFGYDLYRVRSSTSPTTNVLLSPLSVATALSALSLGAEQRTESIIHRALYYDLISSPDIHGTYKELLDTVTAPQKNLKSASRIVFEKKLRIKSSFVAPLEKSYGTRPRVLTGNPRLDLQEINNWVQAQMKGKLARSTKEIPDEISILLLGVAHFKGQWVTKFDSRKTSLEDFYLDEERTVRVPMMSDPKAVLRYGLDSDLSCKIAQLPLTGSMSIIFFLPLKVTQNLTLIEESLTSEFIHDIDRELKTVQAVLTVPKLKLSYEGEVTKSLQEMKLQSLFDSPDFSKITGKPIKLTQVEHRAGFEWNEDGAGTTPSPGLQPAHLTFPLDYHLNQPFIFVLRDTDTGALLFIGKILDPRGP
UniProt Q9NPR2: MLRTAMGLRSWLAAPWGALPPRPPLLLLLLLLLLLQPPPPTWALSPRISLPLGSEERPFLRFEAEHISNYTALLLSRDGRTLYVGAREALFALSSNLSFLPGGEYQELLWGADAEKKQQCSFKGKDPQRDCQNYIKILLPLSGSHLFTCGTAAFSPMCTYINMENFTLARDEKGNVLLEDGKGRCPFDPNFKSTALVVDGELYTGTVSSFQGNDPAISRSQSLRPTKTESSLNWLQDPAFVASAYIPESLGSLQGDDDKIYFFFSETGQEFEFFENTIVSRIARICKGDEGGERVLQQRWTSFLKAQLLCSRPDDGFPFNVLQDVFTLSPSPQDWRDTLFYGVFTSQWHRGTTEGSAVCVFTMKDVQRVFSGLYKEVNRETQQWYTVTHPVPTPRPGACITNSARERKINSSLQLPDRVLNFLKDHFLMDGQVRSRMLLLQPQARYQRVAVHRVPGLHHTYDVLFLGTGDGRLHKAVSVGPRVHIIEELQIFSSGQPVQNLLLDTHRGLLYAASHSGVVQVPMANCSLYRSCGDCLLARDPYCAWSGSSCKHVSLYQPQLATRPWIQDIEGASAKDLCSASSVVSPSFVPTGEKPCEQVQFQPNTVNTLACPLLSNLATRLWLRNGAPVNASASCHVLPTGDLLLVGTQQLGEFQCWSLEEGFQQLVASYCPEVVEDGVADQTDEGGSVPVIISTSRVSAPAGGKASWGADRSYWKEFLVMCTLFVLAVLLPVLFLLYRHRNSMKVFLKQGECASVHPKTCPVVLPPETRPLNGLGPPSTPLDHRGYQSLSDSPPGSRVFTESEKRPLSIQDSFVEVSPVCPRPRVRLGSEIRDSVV
UniProt O60239: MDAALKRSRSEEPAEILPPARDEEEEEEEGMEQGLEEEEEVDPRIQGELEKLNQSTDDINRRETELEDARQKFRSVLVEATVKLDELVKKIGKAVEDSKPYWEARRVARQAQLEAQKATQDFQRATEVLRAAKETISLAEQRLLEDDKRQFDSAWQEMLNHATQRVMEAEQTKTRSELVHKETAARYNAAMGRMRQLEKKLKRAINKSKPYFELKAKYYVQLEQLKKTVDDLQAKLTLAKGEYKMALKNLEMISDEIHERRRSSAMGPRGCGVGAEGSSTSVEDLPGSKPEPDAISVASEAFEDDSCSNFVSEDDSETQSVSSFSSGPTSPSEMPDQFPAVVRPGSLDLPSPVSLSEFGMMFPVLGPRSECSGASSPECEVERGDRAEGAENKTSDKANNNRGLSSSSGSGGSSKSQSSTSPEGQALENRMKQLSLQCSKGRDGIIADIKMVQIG

How the values were obtained:
Experiment in all cases: log2 fold change, soluble protein after heating vs DMSO (PISA); higher = thermal stabilisation; K562 cells, 10 uM, 30 min; active = over 0.2 and 3.5 SD of the protein, either way, in both replicates (recomputed)
[1] = compound: C1=CC=C(C=C1)[C@H](COC2=CC3=C(C=C2)NC(=O)N3)NC(=O)C4=CC=CN(C4=O)CC5=CC(=C(C=C5)F)F
How it was run: (§1)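 Quantification of soluble protein used TMTpro 16plex LC-MS/MS, with channel sums equalised. Samples were the supernatant after 21,000xg for 90 min of pooled aliquots from K562 cells (2×10^6 cells/mL) treated with 10 μM compound for 30 min, heated for 3 min over 48°C-58°C, and extracted in PBS with 0.5% NP-40 at 4°C. Values, from duplicates, describe thermal stability against control samples on a log2 fold-change scale.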

[2] = compound: CC1=C(SC2=C1C(=N[C@H](C3=NN=C(N32)C)CC(=O)N)C4=CC=C(C=C4)Cl)C
How it was run: as §1

[3] = compound: CC1=C2C(=CC=C1)N=C(N(C2=O)C3=CC=CC=C3C)CN4C=NC5=C(N=CN=C54)N
How it was run: as §1

[4] = compound: Cc1sc2c(c1C)C(c1ccc(Cl)cc1)=N[C@@H](CC(=O)OC(C)(C)C)c1nnc(C)n1-2
How it was run: as §1

[5] = compound: c1ccc([C@@H]2C[C@H]2NC2CCNCC2)cc1
How it was run: as §1

Measured: log2 fold change

SEMA4C (UniProt Q9C0C4)
inactive: [1] -0.017 | [2] 0.057 | [3] 0.004 | [4] 0.018 | [5] 0.05

SGTB (UniProt Q96EQ0)
inactive: [1] -0.033 | [2] 0.055 | [3] 0.135 | [4] -0.043 | [5] -0.031

SKP1 (UniProt P63208)
inactive: [1] -0.035 | [2] -0.008 | [3] 0 | [4] -0.036 | [5] -0.017

SF3A3 (UniProt Q12874)
inactive: [1] -0.091 | [2] -0.041 | [3] 0.006 | [4] 0.013 | [5] -0.069

SELENOP (UniProt P49908)
inactive: [1] -0.105

SERBP1 (UniProt Q8NC51)
inactive: [1] 0.067 | [2] -0.034 | [3] -0.023 | [4] 0.053 | [5] 0.035

SEC62 (UniProt Q99442)
inactive: [1] 0.067 | [2] 0.006 | [3] 0.073 | [4] -0.072 | [5] 0

SF3B3 (UniProt Q15393)
inactive: [1] 0.008 | [2] 0.025 | [3] 0.037 | [4] 0 | [5] -0.014

Pulled one by one from above, two records:
SF3B3 (UniProt Q15393)
inactive: [1] 0.008 | [2] 0.025 | [3] 0.037 | [4] 0 | [5] -0.014

SELENOP (UniProt P49908)
inactive: [1] -0.105

The listing continues.

SFSWAP isoform 2 (UniProt Q12872)
inactive: [1] -0.117 | [2] -0.041 | [3] 0.062 | [4] 0.08 | [5] 0.085

SIKE1 (UniProt Q9BRV8)
inactive: [1] 0.001 | [2] 0.056 | [3] 0.066 | [4] 0.048 | [5] -0.066

SHTN1 isoform 3 (UniProt A0MZ66)
inactive: [1] -0.058 | [2] 0.009 | [3] 0.148 | [4] -0.027 | [5] -0.024

SFN (UniProt P31947)
inactive: [1] 0.004 | [2] 0.042 | [3] 0.073 | [4] -0.027 | [5] -0.017

SEC61G (UniProt P60059)
inactive: [1] 0.046

SEPHS1 (UniProt P49903)
inactive: [1] 0.004 | [2] 0.068 | [3] 0.007 | [4] -0.014 | [5] -0.015

SEPTIN6 (UniProt Q14141)
inactive: [1] 0.058 | [2] 0.058 | [3] -0.006 | [4] -0.009 | [5] -0.009

SEC61A1 (UniProt P61619)
inactive: [1] 0.03 | [2] 0.05 | [3] 0.031 | [4] -0.042 | [5] -0.007

SERPINC1 (UniProt P01008)
inactive: [1] -0.031 | [2] -0.055 | [3] 0.077 | [4] 0.099 | [5] 0.156

SGTA (UniProt O43765)
inactive: [1] -0.005 | [2] 0.017 | [3] 0.04 | [4] -0.042 | [5] -0.03

SH3GL1 (UniProt Q99961)
inactive: [1] -0.073 | [2] 0 | [3] 0.118 | [4] 0.002 | [5] -0.049

SETMAR (UniProt Q53H47)
inactive: [1] 0.001 | [2] 0.096 | [3] 0.033 | [4] -0.031 | [5] -0.02

SERPINF1 (UniProt P36955)
inactive: [1] -0.099 | [2] 0.042 | [3] 0.007 | [4] 0.07 | [5] 0.022

SEMA4B (UniProt Q9NPR2)
inactive: [1] 0.023 | [2] -0.083 | [3] 0.081 | [4] 0.133 | [5] 0.085

SFXN2 (UniProt Q96NB2)
inactive: [1] -0.006 | [2] -0.025 | [3] 0.159 | [4] -0.054 | [5] -0.006

SH3BGRL (UniProt O75368)
inactive: [1] -0.003 | [2] 0.093 | [3] 0.062 | [4] -0.108 | [5] 0.026

SESN2 (UniProt P58004)
inactive: [1] -0.03 | [2] -0.031 | [3] 0.067 | [4] 0.066 | [5] -0.028

SH3BP5 (UniProt O60239)
inactive: [1] 0.023 | [2] -0.008 | [3] -0.069 | [4] 0.066 | [5] -0.033
